The record followed here is article doi:10.1101/2023.08.01.551545.

Holding throughout (experiment): co-IP
Assay [1] has as its target T1, GFP::3xFLAG::HRDE-1 (C. elegans) (UniProt Q09249).
T1 sequence: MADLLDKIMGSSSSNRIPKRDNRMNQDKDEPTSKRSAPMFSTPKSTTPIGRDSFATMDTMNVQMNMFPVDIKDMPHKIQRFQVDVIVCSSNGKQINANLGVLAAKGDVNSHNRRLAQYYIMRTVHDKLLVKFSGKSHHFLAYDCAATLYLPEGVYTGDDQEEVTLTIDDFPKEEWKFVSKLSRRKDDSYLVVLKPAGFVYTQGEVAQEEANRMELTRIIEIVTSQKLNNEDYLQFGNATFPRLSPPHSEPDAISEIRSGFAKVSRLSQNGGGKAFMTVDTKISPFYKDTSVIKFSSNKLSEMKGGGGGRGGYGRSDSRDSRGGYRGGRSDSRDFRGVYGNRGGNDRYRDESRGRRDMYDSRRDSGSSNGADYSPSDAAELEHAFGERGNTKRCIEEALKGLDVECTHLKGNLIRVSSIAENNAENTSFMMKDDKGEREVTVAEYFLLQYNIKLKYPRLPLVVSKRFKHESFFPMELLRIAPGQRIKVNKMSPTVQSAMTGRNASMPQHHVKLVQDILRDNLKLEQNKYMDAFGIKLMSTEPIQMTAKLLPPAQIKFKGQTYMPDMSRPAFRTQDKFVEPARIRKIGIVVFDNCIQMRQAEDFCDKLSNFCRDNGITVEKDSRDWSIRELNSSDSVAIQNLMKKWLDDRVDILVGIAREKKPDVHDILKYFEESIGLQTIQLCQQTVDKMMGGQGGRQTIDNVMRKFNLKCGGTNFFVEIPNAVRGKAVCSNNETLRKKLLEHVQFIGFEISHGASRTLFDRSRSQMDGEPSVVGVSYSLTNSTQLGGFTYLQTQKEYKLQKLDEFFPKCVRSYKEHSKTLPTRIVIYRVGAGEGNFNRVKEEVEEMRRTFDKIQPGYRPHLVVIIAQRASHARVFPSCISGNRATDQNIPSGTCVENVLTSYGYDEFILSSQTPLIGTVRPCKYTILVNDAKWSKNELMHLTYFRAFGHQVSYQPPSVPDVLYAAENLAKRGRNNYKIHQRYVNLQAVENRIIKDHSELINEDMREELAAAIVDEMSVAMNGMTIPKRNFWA

Assay [2] addresses T2, SIMR-1::mCherry::2xHA (C. elegans) (UniProt O01477).
T2 sequence: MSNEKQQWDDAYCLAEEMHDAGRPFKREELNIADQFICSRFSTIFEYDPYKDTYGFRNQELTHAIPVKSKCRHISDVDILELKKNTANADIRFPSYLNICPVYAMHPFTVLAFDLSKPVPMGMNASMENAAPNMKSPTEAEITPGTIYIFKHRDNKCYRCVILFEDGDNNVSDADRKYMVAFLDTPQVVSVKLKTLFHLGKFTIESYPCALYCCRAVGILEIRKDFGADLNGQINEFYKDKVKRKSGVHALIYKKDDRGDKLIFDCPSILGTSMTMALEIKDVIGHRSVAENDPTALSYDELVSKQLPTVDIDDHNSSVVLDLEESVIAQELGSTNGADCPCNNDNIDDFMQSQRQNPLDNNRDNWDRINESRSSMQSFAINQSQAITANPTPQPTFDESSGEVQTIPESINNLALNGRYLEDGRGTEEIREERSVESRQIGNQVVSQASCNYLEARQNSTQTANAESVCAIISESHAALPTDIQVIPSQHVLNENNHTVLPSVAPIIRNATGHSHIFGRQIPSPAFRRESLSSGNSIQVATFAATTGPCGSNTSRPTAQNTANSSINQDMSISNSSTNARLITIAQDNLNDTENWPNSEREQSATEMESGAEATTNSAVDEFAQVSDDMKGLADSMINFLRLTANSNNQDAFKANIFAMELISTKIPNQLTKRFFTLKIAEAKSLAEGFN

For assay [3], the target named is T3, HRDE-2::2xTy1::GFP (C. elegans) (UniProt Q22058).
T3 sequence: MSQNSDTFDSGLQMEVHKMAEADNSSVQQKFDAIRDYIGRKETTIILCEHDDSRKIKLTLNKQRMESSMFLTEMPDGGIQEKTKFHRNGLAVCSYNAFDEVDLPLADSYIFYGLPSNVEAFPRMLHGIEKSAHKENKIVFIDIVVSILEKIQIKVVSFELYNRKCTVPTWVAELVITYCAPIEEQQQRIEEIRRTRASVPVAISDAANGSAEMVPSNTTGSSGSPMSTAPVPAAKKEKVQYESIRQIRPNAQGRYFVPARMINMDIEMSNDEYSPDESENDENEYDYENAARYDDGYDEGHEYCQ

These are yes or no findings as the source states them, for the method shown. Binding seen in cells or lysates may run through a third protein. Some binding calls cover weakened binding; strength is not graded here. Where a sequence is shown, tags or fusion partners need not be part of it.

B1: HRDE-2::2xTy1::GFP (protein, UniProt Q22058 1-305)
chain: T3 sequence
In the case of B1, the binding entry in assay [1] is recorded as “binds”; in assay [2], “no binding”.

B2: SIMR-1::mCherry::2xHA (protein, UniProt O01477 1-691)
chain: T2 sequence
For the molecule B2, the binding entry in assay [3] is on record as “no binding”.
